“And” between values parts separate entries of the source, which are not always exact repeats. Equal entries are not always repeated. The list shows a part of the results. For some assays here: Construct or isoform of the protein are uncertain.

By UniProt entry, the sequences of proteins in these tests, tags left out.
UniProt O75821, whole entry: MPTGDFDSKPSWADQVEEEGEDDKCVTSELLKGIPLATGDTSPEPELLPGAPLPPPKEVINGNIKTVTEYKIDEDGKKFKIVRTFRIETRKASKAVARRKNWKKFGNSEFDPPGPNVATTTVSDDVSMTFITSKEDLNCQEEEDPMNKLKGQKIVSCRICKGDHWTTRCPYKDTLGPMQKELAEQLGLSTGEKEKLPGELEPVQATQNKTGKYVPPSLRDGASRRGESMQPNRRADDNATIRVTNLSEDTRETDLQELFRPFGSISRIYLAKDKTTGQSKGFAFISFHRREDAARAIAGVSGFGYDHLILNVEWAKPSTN
UniProt P60228, whole entry: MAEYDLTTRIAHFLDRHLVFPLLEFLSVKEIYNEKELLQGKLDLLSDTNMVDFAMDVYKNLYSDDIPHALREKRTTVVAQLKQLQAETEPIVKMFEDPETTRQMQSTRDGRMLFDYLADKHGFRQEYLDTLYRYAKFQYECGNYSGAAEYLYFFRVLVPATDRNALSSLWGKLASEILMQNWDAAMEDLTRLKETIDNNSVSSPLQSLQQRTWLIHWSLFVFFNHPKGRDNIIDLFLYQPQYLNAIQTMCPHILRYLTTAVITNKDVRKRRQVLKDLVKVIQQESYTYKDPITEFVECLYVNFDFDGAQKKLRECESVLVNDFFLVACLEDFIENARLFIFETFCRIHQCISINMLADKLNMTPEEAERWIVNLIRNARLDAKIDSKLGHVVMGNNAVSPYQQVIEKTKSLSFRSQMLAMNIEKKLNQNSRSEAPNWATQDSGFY

This note sets out measurements from paper PMC5996148.

What all share (assay): protein microarray (ProtoArray v5.0), streptavidin-Alexa Fluor 647
What all share (conditions): 3'-biotin; 20 mM Tris (pH 7.5), 5 mM MgCl2, 100 mM KCl, 0.1% Tween-20, A/T-rich and random oligonucleotide blockers; temperature not stated; high values mean tight binding

Assay [1] has as its system DYDC1 (human).
The test system of assay [2] is DYNC1LI2 (human).
In assay [3] the test system is Dehydrogenase/reductase SDR family member 1 (human).
For assay [4], the system named is Density-regulated protein (human).
The subject of assay [5] is Deoxycytidine kinase (human).
For assay [6], the system named is Differentially expressed in FDCP 6 homolog (human).
In assay [7] the test system is Dihydroorotate dehydrogenase, mitochondrial (human).
Assay [8] concerns Double-stranded RNA-binding protein Staufen homolog 1 (human).
In assay [9] the test system is E2F4 (human).
Assay [10] deals with ECE1 (human).
The test system of assay [11] is ECE2 (human).
For assay [12], the system named is ECM1 (human).
Assay [13] has as its system EFCBP1 (human).
The test system of assay [14] is EFS (human).
In assay [15] the test system is EIF2B2 (human).
In assay [16] the target is EIF3S4 (UniProt O75821).
Assay [17] deals with EIF3S6 (UniProt P60228).
Assay [18] concerns ELA3A (human).
Assay [19] concerns EMILIN1 (human).
Assay [20] has as its system EMP3 (human).

For the sequence “GGGGACAGGGGTATGGGGAGGGG [G4-3 biotinylated (CtG)]”, the binding signal is -0.338 z-score in [1]; -0.331 z-score in assay [2]; -0.335 z-score and -0.325 z-score in assay [3]; 3.01 z-score in assay [4]; -0.326 z-score in assay [5]; -0.333 z-score in assay [6]. In addition, the binding signal in [7] is -0.316 z-score; in [8] it was 3.65 z-score; in [9], -0.328 z-score; in [10] it was -0.316 z-score; in [11] it was -0.334 z-score; in assay [12], -0.319 z-score. The binding signal in assay [13] was -0.305 z-score; in assay [14], -0.33 z-score; in [15], -0.343 z-score; in assay [16], 3.15 z-score; in assay [17] it was -0.34 z-score; in [18], -0.318 z-score and -0.316 z-score. In addition, the binding signal in assay [19] is -0.33 z-score; in assay [20], -0.316 z-score.
